## Results of single-concentration screens

Protein sequences, listed by entry. Tags and fused reporters are not part of them. Residues count along the entry.
UniProt Q8IDJ8, 1-583: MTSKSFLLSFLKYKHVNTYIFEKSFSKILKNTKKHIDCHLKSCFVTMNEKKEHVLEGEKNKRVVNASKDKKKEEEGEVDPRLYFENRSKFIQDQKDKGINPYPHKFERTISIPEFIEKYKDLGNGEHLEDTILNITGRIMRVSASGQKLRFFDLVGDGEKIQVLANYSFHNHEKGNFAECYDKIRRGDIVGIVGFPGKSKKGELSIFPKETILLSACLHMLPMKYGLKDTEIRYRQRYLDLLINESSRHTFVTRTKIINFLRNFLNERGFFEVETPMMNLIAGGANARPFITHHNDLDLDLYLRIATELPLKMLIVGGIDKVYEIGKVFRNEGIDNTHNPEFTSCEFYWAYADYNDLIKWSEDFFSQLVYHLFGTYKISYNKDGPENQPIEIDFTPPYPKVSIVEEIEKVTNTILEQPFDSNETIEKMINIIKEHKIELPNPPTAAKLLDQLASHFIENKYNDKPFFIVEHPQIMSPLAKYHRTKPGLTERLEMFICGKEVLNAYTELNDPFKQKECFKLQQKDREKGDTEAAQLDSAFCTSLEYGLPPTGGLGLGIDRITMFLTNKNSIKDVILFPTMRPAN

Each number is a percent effect as filed.
How 0% and 100% were set is not recorded. Most values in the screen are low, and negative values occur.
This is an unselected part of the compounds tested.

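Lysine-tRNA ligase, Plasmodium falciparum 3D7 (UniProt Q8IDJ8). Enzyme assay of the cytosolic lysyl-tRNA synthetase in 384-well plates, read by luminescence. Compounds at 30 µM. Higher reads as stronger inhibition, judged from the few compounds that gave an IC50. Size under these conditions: about 69,000 compounds, about 49 of them at 50% or above in at least one test.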

compound,effect
CN1CC2(CCNCC2)COc2ccccc2S1(=O)=O,4.492%
CC(C1CCN(Cc2ccc(N(C)C)nc2)CC1)N(C)C (stereo not given),1.588%
CC(C)NC(=O)C(NC(=O)N1CCN(c2ccc(Cl)cc2)CC1)C(C)C (stereo not given),4.309%
CC(C)C1=NOC2(CCN(Cc3c[nH]c4ccccc34)CC2)C1,-4.435%
CCc1nc(C)c(CC(=O)N2CCC3(CC2)OCCCC3OC)c(=O)[nH]1 (stereo not given),-4.076%
c1cn2c(n1)CO[C@@H](CNCc1ccc3c(c1)OCO3)C2,0.2774%
CCn1cc(S(=O)(=O)N2CCC(C)Sc3ccccc32)cn1 (stereo not given),-0.8791%
Cn1ccc(C(=O)N2CCCC2c2cc(CO)[nH]n2)n1 (stereo not given),2.018%
CC1COCCN1C(=O)Cc1cc(Cl)c2c(c1)OCCCO2 (stereo not given),-1.35%
CN(Cc1cc(C2CC2)[nH]n1)C(=O)C(c1cccnc1)N1CCCC1 (stereo not given),-1.951%
O=C(CCCOCc1ccccc1)N1CCCC(n2cncn2)C1 (stereo not given),0.3035%
CCN1CCC2(CC1)CC(CC(=O)N(C)C)c1ccc(F)cc12 (stereo not given),-3.685%
Cc1c(CN2CCC(C(=O)O)(n3cccn3)CC2)oc2ccccc12,5.466%
COc1ccc(C(C)N(C)Cc2nc3c(cnn3C)c(=O)[nH]2)cc1 (stereo not given),0.4774%
Cc1ccc(C(=O)N2CCN(Cc3ccc(C#N)cc3)CC2)n1C,-0.08719%
Cn1nnnc1SC1CCc2ccccc2NC1=O (stereo not given),6.373%
Cc1ccc(NC(=O)CNC(C)CN2CCCCC2)c(F)c1 (stereo not given),0.1242%
Cc1ccc(-c2cc(C(=O)N(C)Cc3noc4c3CCCC4)[nH]n2)s1,-1.897%
COc1ccc(C2CN(c3ncccn3)CCN2C(C)=O)cc1 (stereo not given),1.055%
Cc1cc(C)n(Cc2cc(C(=O)N3CCCC3c3ccccn3)n[nH]2)n1 (stereo not given),0.4528%
Cc1cc(-n2c(C)cn(CN(C)CC3CC3)c2=O)no1,2.889%
Cc1ccsc1C(=O)N1CCCN(Cc2cscn2)CC1,-1.084%
Cc1nc(C)n(CC2CN(CCOc3ccc(C#N)cc3)CCO2)n1 (stereo not given),-0.2616%
NC(=O)CCNC(=O)NCC1(c2ccccc2Cl)CCC1,3.221%
O=C(NCCc1cccnc1)c1ccc2nccn2c1,7.868%
COc1ccnc(N2CCN(C(=O)c3cnc(C4CC4)s3)CC2)n1,3.103%
CC(=O)N1CCN([C@@H]2CN(C(=O)Cc3ccccc3C)C[C@H]2O)CC1,0.01526%
CN1CCN(C2COC3(CCN(c4ccc(C#N)cc4)CC3)C2)CC1 (stereo not given),3.703%
Cc1cnn(CCNCC(=O)NCCOc2ccc(Cl)cc2)c1,0.3175%
Cc1cnn(CC2CCCN2CC(=O)Nc2nncs2)c1 (stereo not given),8.578%
CC(c1ccc2c(c1)OCO2)N1Cc2nc(N(C)C)ncc2C1=O (stereo not given),2.361%
CC(C)C(=O)N1CCN(CC(O)c2cc(Cl)ccc2Cl)CC1 (stereo not given),-1.132%
CN(C)Cc1nnc(C2CCN(c3ncccn3)CC2)n1C1CC1,-3.667%
O=C(C1CCC1)N1CCC2(COCc3cnc(-c4cccnc4)nc32)C1 (stereo not given),8.063%
CCn1ccnc1CNCC1CCN(CC(O)c2ccccc2)CC1 (stereo not given),-5.814%
Cc1nccn1-c1ccc(NS(=O)(=O)c2cnn(C)c2)cn1,3.508%
CN1CCNC(Cc2ccc(-c3ccncc3)cc2)C1=O (stereo not given),0.4839%
CN(CC(=O)N(C)C(c1cccnc1)c1ccc(F)c(F)c1)C1CC1 (stereo not given),2.92%
Cn1ccnc1CN1CCC2(CC(=O)N(c3cncnc3)C2)C1 (stereo not given),5.367%
Cc1cc(C)nc(C2CCN(C(=O)c3cnc(N(C)C)nc3)C2)n1 (stereo not given),0.7911%
O=C1N(Cc2ccc(F)c(F)c2)CCCC1(O)CNCC1CCCCC1 (stereo not given),-4.643%
Cc1ccc(-c2nnc(C(C)N3CCc4cncnc4C3)o2)cc1 (stereo not given),0.5423%
CC(C)c1ccsc1C(=O)N1CCCN(Cc2cscn2)CC1,2.577%
CCC(O)Cn1nc(-c2ccc(C(=O)O)cc2)cc1-c1cccc(F)c1 (stereo not given),2.094%
CCc1nnc(CN(CC)C(=O)C2CC(=O)N(C3CC3)C2)o1 (stereo not given),3.817%
Cc1nc(CCNC2CCN(Cc3ccccc3)C2)sc1C (stereo not given),0.5145%
COc1ccc(C(=O)N2CC[C@@]3(O)CCCC[C@H]3C2)cc1OC,0.1697%
CC(C)N1CCN(C(=O)c2[nH]nnc2Nc2ccccc2F)CC1,-3.966%
Cc1nc(C)n(CC2CCCN2c2ccnc(-c3ccccc3)n2)n1 (stereo not given),0.3381%
CO[C@H]1CN(C(=O)c2ccc(C)o2)[C@@H]2CCCO[C@H]12,4.097%
Cc1cccc(CN2CCc3ncnc(C4CC4)c3CC2)n1,3.316%
CCN(CCOC)C(=O)CCc1scnc1C,1.42%
O=C(NCC1CCCO1)c1csc(Cc2ccccc2)n1 (stereo not given),0.256%
CN(C)CCN1CCN(Cc2ccco2)Cc2cccnc21,2.199%
O=C(NCCC(O)c1ccccc1)c1ccco1 (stereo not given),0.567%
CC(NCc1cnc(C2CCC2)s1)c1cccc(-n2ccnc2)c1 (stereo not given),11.56%
CCN(CC)C(=O)c1ccc(NC(=O)CNc2ccc(Br)cc2F)cc1,6.094%
CCc1ccc(CN2CCC3(CC2)C(=O)N(C)CCN3CC2CC2)cc1,0.803%
COc1ccc(CN(C)[C@@H]2CN(C(=O)c3ccccc3)C[C@H]2O)cc1,2.482%
Cc1nnc(CN(Cc2cccc(Cl)c2)C(C)C)o1,10.11%
Cc1ccc(N2CC[C@@H]3[C@@H]2CCN3Cc2ccsc2)nn1,4.39%
CC(=O)NC1CCCN(C(=O)CNc2cc(Cl)cc(Cl)c2)C1 (stereo not given),1.663%
Cc1sc(CS(C)(=O)=O)nc1-c1ccc(Cl)cc1,-1.663%
COc1ccccc1-n1nc(-c2ccco2)n(CC(N)=O)c1=O,3.353%
Cc1cc(C)n(C2CN(CC(=O)N(C)Cc3cnn(C)c3)C2)n1,3.019%
O=C(NCCC1=CCCCC1)C1CCCN(c2ccc3nncn3n2)C1 (stereo not given),-0.4914%
Cc1nccc(C2CCCN(S(=O)(=O)N3CCOCC3)C2)n1 (stereo not given),1.338%
CCn1cc(CN2CCCC2c2nc(-c3ccccc3)no2)cc1C#N (stereo not given),5.693%
CC(=O)c1cc(C(=O)N2CC[C@@H]3CC[C@H](C2)N3C)c(=O)[nH]c1C,0.5435%
CCc1ccc(C(=O)N2CCCC(c3nn[nH]n3)C2)cc1 (stereo not given),-2.317%
O=C([C@H]1C[C@@H]2CCN(c3cccc(F)c3)C[C@H]2O1)N1CCCCO1,1.25%
CN1CCOC(CN(C(=O)CC2CCCC2)c2nccs2)C1 (stereo not given),-2.94%
O=S(=O)(NCC1COc2ccccc2C1)N1CCOCC1 (stereo not given),0.02393%
Fc1ccc(CN[C@@H]2COC[C@H]2c2ccc(F)cc2)cc1,0.2718%
COCCC(=O)N1CCCC1c1nc(O)cc(-c2ccccn2)n1 (stereo not given),3.174%
CC(C)c1ncc(CN2C[C@@H](CN3CCCN(C)CC3)[C@@H](CO)C2)cn1,-0.1604%
Cn1nc(CN2CCOCC2)c2c1CN(C(=O)c1ccc[nH]1)C2,4.28%
CC(=O)N1CCN(c2cc(C)ncn2)CC(CO)C1 (stereo not given),0.4553%
CCS(=O)(=O)N1CCC2(CN(c3ccsc3)C(=O)CN2C)C1 (stereo not given),7.794%

Source: ChEMBL document CHEMBL3988442, “University of Dundee, Small-Polar-MMV Screening Library” (2021).